# Measurements reported in PubChem BioAssay AID504804 (Drosophila RNAi Screening Center, 2011).
# Screen: 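Fly genes whose loss lessens doxorubicin-driven cell death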 (primary screen)
# Cells: Drosophila Kc cells
# Knock-down reagent: long dsRNA against Drosophila genes, 0.5 µg dsRNA per well
# Duration: 96 h (48 h knock-down, then 48 h drug)
# Conditions: doxorubicin 5 µg/ml for 48 h, added 48 h after dsRNA
# Detection: 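Luminescent ATP counts per replicate, not normalised, reflecting viable cells after 48 h dsRNA knock-down followed by 48 h of 5 µg/ml doxorubicin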
# Scale: raw ATP luminescence: higher = more viable cells, protection from doxorubicin
# Rule for the call: 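Active when both duplicate wells lie at least 2 SD above the plate mean and protection is confirmed by rescreening and independent dsRNAs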
# The screen tested about 19,000 reagents; below is a random part of those that have a named target and a result. Over the whole deposit, 47 (0.25%) were called active. 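Signals are raw, not normalised; exact z-scores behind calls not deposited; actives needed confirmation, so some wells reaching 2 SD are inactive.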 Reagents against one gene are numbered here. A plus sign joins genes that one reagent is predicted to hit. Reagent sequences are not shown.
Target gene,reagent no.,"raw ATP luminescence, replicate 1","raw ATP luminescence, replicate 2",call
CG5103,1,51287,43653,inactive
CG15439,1,1.75e5,1.73e5,inactive
CG1835,1,2.94e5,3.07e5,inactive
Nuf2,1,1.10e5,66320,inactive
mthl2,1,75797,76167,inactive
CG31510,1,66010,62470,inactive
GstE13,1,75483,78360,inactive
Ostgamma,1,1.11e5,73913,inactive
VhaSFD,1,86870,61683,inactive
wdb,1,27070,39660,inactive
CG15767,1,39550,51500,inactive
CG13996,1,33243,22620,inactive
apn,1,72070,62370,inactive
CG31464,1,69527,59103,inactive
CG15841 (retired record) + Acp33A,1,37590,75660,inactive
NANS,1,48517,55630,inactive
CenG1A,1,69370,76813,inactive
CenG1A,2,85150,82160,inactive
CenG1A,3,84030,83690,inactive
RIOK1,1,37687,36737,inactive
CG15330,1,30330,35030,inactive
Lcp65Ag3 + Lcp65Ag2 + Lcp65Ag1,1,76987,86760,inactive
Lcp65Ag3 + Lcp65Ag2 + Lcp65Ag1,2,83607,1.17e5,inactive
crb,1,38940,40360,inactive
CG12057,1,4.54e5,3.51e5,inactive
CG11034,1,35693,29387,inactive
CG11034,2,20673,23027,inactive
4E-T,1,42270,53270,inactive
TyrRII,1,31280,28950,inactive
lqf,1,42167,42740,inactive
CG6893,1,55677,53030,inactive
bur,1,73040,62210,inactive
Ssrp,1,73447,99803,inactive
CG17562,1,80270,61850,inactive
Slimp,1,1.78e5,2.06e5,inactive
beat-Ic,1,3.19e5,2.71e5,inactive
beat-Ic,2,51073,63333,inactive
Pfdn2,1,88770,63840,inactive
chif,1,91977,78373,inactive
GstD3,1,53587,59977,inactive
PGRP-SB1,1,40153,43180,inactive
CG14312,1,84060,95080,inactive
CG31760,1,66173,72483,inactive
Pus10,1,1.04e5,77850,inactive
CG14456,1,54647,51667,inactive
Eaf6,1,67670,83697,inactive
GluRIA,1,66517,65893,inactive
CG5466,1,17330,19500,inactive
Adck5,1,70527,84193,inactive
CG12507,1,2.78e5,2.61e5,inactive
CG7656,1,20863,25273,inactive
nuf,1,70087,50433,inactive
CG13838,1,61030,53720,inactive
gt,1,16610,17280,inactive
CG44836,1,85973,64187,inactive
CG7702,1,50953,54373,inactive
CG31815,1,3.08e5,2.32e5,inactive
alpha-Catr,1,45497,58113,inactive
CG13064,1,48250,37033,inactive
AOX1,1,39957,25473,inactive
CG12316,1,38667,32733,inactive
Cep135,1,68513,75023,inactive
Cep135,2,44697,34730,inactive
CG15543,1,60200,43080,inactive
Jhbp12,1,70340,61610,inactive
wge,1,43360,24817,inactive
wge,2,67370,71100,inactive
Pdxk,1,82863,68463,inactive
CG31465,1,53730,50747,inactive
RpS27A,1,32823,69450,inactive
CG42232,1,36350,39400,inactive
CG42232,2,36467,36513,inactive
CG8997,1,70807,75140,inactive
CG12426,1,60980,48790,inactive
d4,1,77043,66393,inactive
ACXC,1,68690,81673,inactive
Peritrophin-15b,1,42253,76527,inactive
SWIP,1,3.11e5,2.37e5,inactive
Sodh1,1,35890,30197,inactive
ara,1,41230,38277,inactive
CG13071,1,52353,52220,inactive
Nup98-96,1,29790,34627,inactive
Nup98-96,2,39330,46720,inactive
Ugt316A1,1,71447,57857,inactive

A portion from the list above, for reference:
Target gene,reagent no.,"raw ATP luminescence, replicate 1","raw ATP luminescence, replicate 2",call
Pdxk,1,82863,68463,inactive
CG31465,1,53730,50747,inactive
RpS27A,1,32823,69450,inactive
CG42232,1,36350,39400,inactive
CG42232,2,36467,36513,inactive
CG8997,1,70807,75140,inactive
CG12426,1,60980,48790,inactive
d4,1,77043,66393,inactive
ACXC,1,68690,81673,inactive
Peritrophin-15b,1,42253,76527,inactive
